These are yes or no findings as the source states them, for the method shown. For some assays here: Binding seen in cells or lysates may run through a third protein. Some results given as binding are weak or reduced against the parent protein; the word gives no strength. Where a sequence is shown, tags or fusion partners need not be part of it.

This note sets out measurements from publication doi:10.64898/2025.12.09.693153.

In assay [1] the target is T1, AtATG8a(ΔUDS), yeast two-hybrid fusion (Arabidopsis thaliana) (UniProt Q8LEM4).
T1 sequence: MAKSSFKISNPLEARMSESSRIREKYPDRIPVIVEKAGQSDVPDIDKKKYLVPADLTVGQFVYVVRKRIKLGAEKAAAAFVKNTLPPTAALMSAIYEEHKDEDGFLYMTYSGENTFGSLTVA
In words: two-hybrid.

In assay [2] the target is AtEBM (Arabidopsis thaliana endo-β-mannosidase), yeast two-hybrid fusion (Arabidopsis thaliana) (UniProt Q75W54). In words: two-hybrid.
Assay [3] has as its target T2, AtATG8a, yeast two-hybrid fusion (Arabidopsis thaliana) (UniProt Q8LEM4).
T2 sequence: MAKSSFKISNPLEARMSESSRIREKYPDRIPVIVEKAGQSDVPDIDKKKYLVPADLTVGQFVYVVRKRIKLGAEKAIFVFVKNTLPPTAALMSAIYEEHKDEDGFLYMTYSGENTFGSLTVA
Description: two-hybrid.

The target in assay [4] is T3, AtNBR1, yeast two-hybrid fusion (Arabidopsis thaliana) (UniProt Q9SB64).
T3 sequence: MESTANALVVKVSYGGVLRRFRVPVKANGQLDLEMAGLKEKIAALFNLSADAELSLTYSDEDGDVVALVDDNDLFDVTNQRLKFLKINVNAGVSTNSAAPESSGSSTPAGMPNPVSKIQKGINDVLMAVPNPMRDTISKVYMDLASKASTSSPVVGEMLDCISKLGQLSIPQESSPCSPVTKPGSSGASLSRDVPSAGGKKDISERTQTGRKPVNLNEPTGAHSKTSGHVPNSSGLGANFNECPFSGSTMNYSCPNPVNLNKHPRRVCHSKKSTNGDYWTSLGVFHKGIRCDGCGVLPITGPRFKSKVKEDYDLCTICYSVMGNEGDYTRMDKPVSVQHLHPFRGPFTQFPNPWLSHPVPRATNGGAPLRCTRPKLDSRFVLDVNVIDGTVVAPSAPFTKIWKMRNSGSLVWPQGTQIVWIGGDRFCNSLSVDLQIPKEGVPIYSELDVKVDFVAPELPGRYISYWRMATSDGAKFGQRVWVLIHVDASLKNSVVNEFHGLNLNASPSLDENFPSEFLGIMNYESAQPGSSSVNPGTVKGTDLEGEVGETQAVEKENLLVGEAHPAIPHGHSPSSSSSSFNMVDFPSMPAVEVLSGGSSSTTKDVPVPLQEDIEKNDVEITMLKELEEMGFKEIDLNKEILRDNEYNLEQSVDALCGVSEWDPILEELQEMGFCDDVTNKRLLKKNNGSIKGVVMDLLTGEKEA
In words: two-hybrid.

Assay [5] deals with T4, cLUC-ATG8a(ΔUDS) (Arabidopsis thaliana) (UniProt Q8LEM4).
T4 sequence: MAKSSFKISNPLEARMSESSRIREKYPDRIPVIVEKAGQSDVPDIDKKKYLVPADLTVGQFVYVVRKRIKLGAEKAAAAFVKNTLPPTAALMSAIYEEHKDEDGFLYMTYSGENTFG
In words: split reporter.

Assay [6] concerns the target AtEBM-nLUC (Arabidopsis thaliana) (UniProt Q75W54). In words: split reporter.
The target in assay [7] is T5, AtNBR1, luciferase complementation fusion (Arabidopsis thaliana) (UniProt Q9SB64).
T5 sequence: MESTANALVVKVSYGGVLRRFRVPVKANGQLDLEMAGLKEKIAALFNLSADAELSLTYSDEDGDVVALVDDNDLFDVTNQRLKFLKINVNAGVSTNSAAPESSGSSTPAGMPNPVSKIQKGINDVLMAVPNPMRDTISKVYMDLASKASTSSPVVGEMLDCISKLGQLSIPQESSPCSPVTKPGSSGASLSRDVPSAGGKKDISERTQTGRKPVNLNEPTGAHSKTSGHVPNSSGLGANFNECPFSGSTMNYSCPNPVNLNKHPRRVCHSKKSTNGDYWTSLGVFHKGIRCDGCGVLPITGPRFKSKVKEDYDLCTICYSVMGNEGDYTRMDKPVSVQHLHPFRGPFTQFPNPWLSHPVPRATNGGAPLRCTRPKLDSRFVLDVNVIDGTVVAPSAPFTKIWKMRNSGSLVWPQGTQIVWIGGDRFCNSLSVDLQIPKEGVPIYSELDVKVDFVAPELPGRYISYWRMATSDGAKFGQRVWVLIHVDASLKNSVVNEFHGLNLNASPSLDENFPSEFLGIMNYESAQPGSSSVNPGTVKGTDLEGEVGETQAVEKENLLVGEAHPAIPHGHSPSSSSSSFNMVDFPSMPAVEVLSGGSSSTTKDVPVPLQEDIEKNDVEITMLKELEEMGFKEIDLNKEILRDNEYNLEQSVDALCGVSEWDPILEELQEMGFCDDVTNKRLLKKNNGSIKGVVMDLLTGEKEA
Description: split reporter.

The target in assay [8] is T6, cLUC-AtATG8a (Arabidopsis thaliana) (UniProt Q8LEM4).
T6 sequence: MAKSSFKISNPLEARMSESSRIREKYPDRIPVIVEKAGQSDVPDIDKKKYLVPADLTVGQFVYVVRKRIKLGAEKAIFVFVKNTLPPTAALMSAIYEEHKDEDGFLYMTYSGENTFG
In words: split reporter.

B1: AtEBM (Arabidopsis thaliana endo-β-mannosidase), yeast two-hybrid fusion (protein, UniProt Q75W54 1-944)
chain: MAEIGKTVLDFGWIAARSTEVDVNGVQLTTTNPPAISSESRWMEAAVPGTVLGTLVKNKAIPDPFYGLENEAITDIADSGRDYYTFWFFTKFQCQRLLNQYVHLNFRAINYSAQVFVNGHKTELPKGMFRRHTLDVTDILHPESNLLALIVHPPDHPGTIPPEGGQGGDHEIGKDVAAQYVQGWDWICPIRDRNTGIWDEVSISVTGPVRIIDPHLVSTFFDDYKRAYLHVTAELENKSTWNTECSVNIQITAELENGVCLVEHLQTENVLIPAQGRIQHTFKPLYFYKPELWWPNGMGKQNLYDILITVVVNEFGESDSWMQPFGFRKIESVIDSVTGGRLFKINGEPIFIRGGNWILSDGLLRLSKERYRTDIKFHADMNMNMIRCWGGGLAERPEFYHFCDIYGLLVWQEFWITGDVDGRGVPVSNPNGPLDHELFLLCARDTVKLLRNHPSLALWVGGNEQVPPKDINEALKQDLRLHSYFETQLLSDKDSDPSVYLDGTRVYIQGSMWDGFADGKGNFTDGPYEIQYPEDFFKDTYYKYGFNPEVGSVGMPVAETIRATMPPEGWTIPLFKKGLDGFIKEVPNRMWDYHKYIPYSNPGKVHDQILMYGTPENLDDFCLKAQLVNYIQYRALFEGWSSQMWTKYTGVLIWKNQNPWTGLRGQFYDHLLDQTASFYGCRSAAEPVHVQLNLASYFVEVVNTTSKELSDVAIEASVWDLDGNCPYYKVFKIVSAPPKKVVKISEFKYPKAANPKHVYFLLLKLYTVSDKAVISRNFYWLHLPGKNYTLLEPYRKKQIPLKITCNAVMVGSRYELEVNVHNTSRANLAKNVVQEDEKRDLGLLQKLFSRCVVSADSNRGLKVVEMKGSDSGVAFFLRFSVHNAETEKQDTRILPVHYSDNYFSLVPGESMSFKISFAAPTGMKKSPRVMLQGWNYPDRFSVFG
In the case of B1, the binding result is “binds” in assay [1], “no binding” in assay [2], “binds” in assay [3] and “no binding” in assay [4].

B2: AtEBM-nLUC (protein, UniProt Q75W54 1-944)
chain: MAEIGKTVLDFGWIAARSTEVDVNGVQLTTTNPPAISSESRWMEAAVPGTVLGTLVKNKAIPDPFYGLENEAITDIADSGRDYYTFWFFTKFQCQRLLNQYVHLNFRAINYSAQVFVNGHKTELPKGMFRRHTLDVTDILHPESNLLALIVHPPDHPGTIPPEGGQGGDHEIGKDVAAQYVQGWDWICPIRDRNTGIWDEVSISVTGPVRIIDPHLVSTFFDDYKRAYLHVTAELENKSTWNTECSVNIQITAELENGVCLVEHLQTENVLIPAQGRIQHTFKPLYFYKPELWWPNGMGKQNLYDILITVVVNEFGESDSWMQPFGFRKIESVIDSVTGGRLFKINGEPIFIRGGNWILSDGLLRLSKERYRTDIKFHADMNMNMIRCWGGGLAERPEFYHFCDIYGLLVWQEFWITGDVDGRGVPVSNPNGPLDHELFLLCARDTVKLLRNHPSLALWVGGNEQVPPKDINEALKQDLRLHSYFETQLLSDKDSDPSVYLDGTRVYIQGSMWDGFADGKGNFTDGPYEIQYPEDFFKDTYYKYGFNPEVGSVGMPVAETIRATMPPEGWTIPLFKKGLDGFIKEVPNRMWDYHKYIPYSNPGKVHDQILMYGTPENLDDFCLKAQLVNYIQYRALFEGWSSQMWTKYTGVLIWKNQNPWTGLRGQFYDHLLDQTASFYGCRSAAEPVHVQLNLASYFVEVVNTTSKELSDVAIEASVWDLDGNCPYYKVFKIVSAPPKKVVKISEFKYPKAANPKHVYFLLLKLYTVSDKAVISRNFYWLHLPGKNYTLLEPYRKKQIPLKITCNAVMVGSRYELEVNVHNTSRANLAKNVVQEDEKRDLGLLQKLFSRCVVSADSNRGLKVVEMKGSDSGVAFFLRFSVHNAETEKQDTRILPVHYSDNYFSLVPGESMSFKISFAAPTGMKKSPRVMLQGWNYPDRFSVFG
Consider B2, for which the binding entry is reported as “binds” in assay [5], “no binding” in assay [6], “no binding” in assay [7] and “binds” in assay [8].
